Results are given in words; binding and its absence hold for the method and conditions named. In cells and extracts the contact can be indirect. Binding calls can cover weak binding; strength is not graded here. Where a sequence is shown, tags or fusion partners need not be part of it.
Biological target: T1, GST fusion protein of the α1-syntrophin PDZ domain (GST-α1-PDZ) (UniProt Q61234)
T1 sequence: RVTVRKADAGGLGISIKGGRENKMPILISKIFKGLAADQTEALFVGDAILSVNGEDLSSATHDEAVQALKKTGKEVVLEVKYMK
Experiment: pull-down

binding: binds
Substance: HA-tagged wild-type diacylglycerol kinase ζ (HA-DGKζ) (enzyme)

— article doi:10.1101/2020.07.08.194100
